Screening data, single-dose tests

Measurements from “University of Dundee, Small-Polar-MMV Screening Library” (2021), ChEMBL document CHEMBL3988442.

Mtb glucose medium: 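Growth of Mycobacterium tuberculosis over 3 days (7H9 medium with glucose and tyloxapol); the read-out is not stated. Tested at 500 µM. The record gives no direction; compounds that gave an IC50 in retests scored well above the rest, so higher reads as more growth inhibition. Of about 18,000 compounds tested this way, about 1,400 (7.9%) reached 50% or more in at least one test.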
Mtb cholesterol medium: 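Phenotypic screen: M. tuberculosis growth, cholesterol and DPPC medium, 4 days; the read-out is not stated. Tested at 500 µM. Direction is inferred from retests: higher values go with more growth inhibition. Size under these conditions: about 18,000 compounds, about 900 of them at 50% or above in at least one test.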

Results are given as percent effect. The record does not define 0% and 100%; most values in the screen are far below 50% and negative numbers occur (in some assays of this library far below -100). The compounds are a random part of those screened.

compound	Mtb glucose medium	Mtb cholesterol medium
COc1ccc2ccccc2c1CN	-1.765	0.4095
COc1cc(NC(=O)c2cc(Cl)ccn2)ncn1	2.781	2.869
Cc1cnn(CCNCc2cccnc2C)c1	6.481	-1.293
CCn1cc(NC(=O)C2(NC(C)=O)CCCCC2)cn1	1.476	-5.894
CC(C)C1CN(C)CCN1Cc1ccncc1 (stereo not given)	-1.688	8.802
CN(C)C(CN)C1CCCCC1 (stereo not given)	67.06	46.83
COc1ccnc(CN(C)CC2CCOCC2)c1OC	-3.815	-6.198
O=C(N1CCOCC1)C1(c2ccc(F)cc2)CC1	23.55	5.74
NCC1CCCN(Cc2ccccc2)C1 (stereo not given)	15.07	3.822
COCCNCCNC(=O)C1CSc2ccccc21 (stereo not given)	-0.7066	-2.504
O=C(Nc1nncs1)c1cc(F)cc(F)c1	1.869	-3.606
CCOCCC(=O)N1CCOc2ccc(CO)cc2C1	7.099	-7.03
NC(=O)N1CCCN(Cc2cc(Cl)cs2)CC1	24.66	7.403
COc1ccccc1CNCCSc1nnnn1C	15.37	18.57
O=C(NC1CCN(C(=O)C2CC2)CC1)c1cccs1	22.36	-1.28
N#CCCN(CC1CC1)C(=O)c1cc(I)c[nH]1	21.08	-4.97
COc1ccc(OC)c(NC(=O)CCn2cnnn2)c1	-7.265	-8.228
CC(C)(C)OC(=O)N1CCC(N2CC(O)C2)CC1	2.572	8.823
CN(C(=O)c1ccccc1)S(=O)(=O)c1ccccc1	81.1	81.48
CC(O)CN1CCN(C(=O)C2CCCC2)CC1 (stereo not given)	-6.689	0.9045
CS(=O)(=O)NCCC(=O)N1CCc2ccccc2C1	17.1	-7.526
Cc1cccc(CNCCc2nnc[nH]2)c1	13.86	6.907
CS(=O)(=O)NCC(=O)NCc1cnn2ccccc12	16.01	8.573
COCCN(CCOC)CCOc1cccc(C#N)c1	29.7	33.53
CCC(C)(C)C(=O)NC1CCN(c2ncccc2F)C1 (stereo not given)	-24.81	-27.65
NC1(CO)CCCc2ccccc21 (stereo not given)	-0.6293	-6.395
O=C(c1cccc(=O)[nH]1)N1CC(N2CCCCC2)C1	-3.894	-21.8
CC1(C2CCCN(C(=O)NCCCF)C2)OCCO1 (stereo not given)	13.2	16.82
O=C(c1cccnc1O)N1CCC(N2CCCCC2)C1 (stereo not given)	4.348	2.461
NC1CC(=O)c2ccccc21 (stereo not given)	28.43	-5.159
COc1cc(F)cc(CNC(=O)Nc2ncco2)c1	-4.308	-10.31
O=C(c1ccco1)N1CCC(N2CCCC2)CC1	7.993	21.33
CN(Cc1cccc(O)c1)S(C)(=O)=O	22.07	5.692
CCCC(=O)NC1CCNC2(CCC2)C1 (stereo not given)	4.998	12.45
CC(C)Oc1cc(CNc2cnccn2)ccn1	5.521	8.324
Cc1[nH]nc(C(N)=O)c1NC(=O)c1cc(F)cc(Br)c1	21.37	12.38
NCC1CCN(C(=O)CCc2ccc(F)cc2)CC1	41.53	15.08
Cc1n[nH]c(C)c1CCN(C)C(=O)CCNS(C)(=O)=O	3.099	5.594
CCNC1CCS(=O)(=O)C1 (stereo not given)	-10.5	-8.443
Cn1cc(S(N)(=O)=O)c(C(F)(F)F)n1	15.85	9.002
CCCN(C)Cc1nc(-c2cccnc2)no1	42.16	43.28
CCn1ncnc1CN1C[C@H](C2CC2)[C@@H](N)C1	12.12	-2.656
CNC(=O)Cn1cc(-c2ccc(F)cc2Cl)cn1	43.81	22.91
CC(CS(C)(=O)=O)NC(=O)c1ccc(C#N)cc1 (stereo not given)	2.907	2.768
CN(CC(=O)NCCCO)C(=O)c1ccccc1	7.201	12.97
CCN(Cc1ccoc1)C(=O)Nc1cccnc1OC	37.52	31.42
CNC(=O)NC(=O)CCSc1ccc2ccccc2n1	-9.071	-26.23
CCC(=O)c1cccc(OC)n1	-3.029	-2.695
CCC(N)COCC1CC1 (stereo not given)	5.33	13.21
NCCc1cc(O)cc(O)c1	13.67	0.7871
CC1CS(=O)(=O)CCN1C(=O)c1cccc2cc[nH]c12 (stereo not given)	10.61	10.7